PubChem BioAssay AID1671195 | Yale University – 2021
Test: 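Genes whose knockdown alters LDL uptake in liver cancer cells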 (primary screen). Cells: human Huh7 hepatoma cells. Knock-down reagent: siRNA pool against human genes, 18 nM. Time to read-out: about 2 to 2.5 days of knockdown, then 8 h LDL uptake. Challenge: DiI-labelled LDL at 30 µg/ml for 8 h, in lipoprotein-deficient serum medium. Measured: 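Fluorescent LDL signal imaged in cells, scaled to the plate median, robust z-score for each replicate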. Reading the numbers: robust z-score: higher = more LDL uptake after knockdown. Rule for the call: 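Active when two or more replicates show a robust z-score above 2 or below -2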.
Here is a random part of about 22,000 reagents. About 1,510 of them (6.9%) were called active. 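Active includes knockdowns raising or lowering LDL uptake; positive z-scores mean more uptake, negative mean less.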

Silencing of BNIP1 came out at: robust z-score, replicate 1 = 0.659; robust z-score, replicate 2 = 1.35; robust z-score, replicate 3 = 0.975; inactive.
With knock-down of TRPM1 the results were robust z-score, replicate 1 = -1.27; robust z-score, replicate 2 = -1.76; robust z-score, replicate 3 = -1.57; inactive.
UCMA gave robust z-score, replicate 1 = -0.0371; robust z-score, replicate 2 = 0.162; robust z-score, replicate 3 = -0.0627; inactive.
Knock-down of CXCL13 resulted in: robust z-score, replicate 1 = 0.938; robust z-score, replicate 2 = 1.14; robust z-score, replicate 3 = 0.0866; inactive.
For ZC2HC1A the deposit lists robust z-score, replicate 1 = -1.81; robust z-score, replicate 2 = -0.494; robust z-score, replicate 3 = -0.464; inactive.
Silencing of REEP2 came out at: robust z-score, replicate 1 = 1.26; robust z-score, replicate 2 = 2.6; robust z-score, replicate 3 = 1.63; inactive.
PARS2 scored robust z-score, replicate 1 = 2.24; robust z-score, replicate 2 = 4.84; robust z-score, replicate 3 = 5.36; active.
Silencing of THAP4 gave: robust z-score, replicate 1 = 1.07; robust z-score, replicate 2 = -0.0989; robust z-score, replicate 3 = 0.862; inactive.
Against EIF5 the deposit lists robust z-score, replicate 1 = -0.807; robust z-score, replicate 2 = -0.512; robust z-score, replicate 3 = -0.608; inactive.
With knock-down of ZC3H18-DT, the record shows robust z-score, replicate 1 = -0.69; robust z-score, replicate 2 = -0.789; robust z-score, replicate 3 = -1.12; inactive.
Against PLEK2, the values are robust z-score, replicate 1 = -1.53; robust z-score, replicate 2 = -1.75; robust z-score, replicate 3 = -2.01; inactive.
With knock-down of NUDT21, the record shows robust z-score, replicate 1 = -0.483; robust z-score, replicate 2 = -0.404; robust z-score, replicate 3 = -0.538; inactive.
With knock-down of NCBP3 the results were robust z-score, replicate 1 = -2.04; robust z-score, replicate 2 = -1.53; robust z-score, replicate 3 = -2.49; active.
After knock-down of SESTD1, the record shows robust z-score, replicate 1 = 2.04; robust z-score, replicate 2 = 2.3; robust z-score, replicate 3 = 2; active.
For DOCK2, the entry reads robust z-score, replicate 1 = -1.37; robust z-score, replicate 2 = -1.44; robust z-score, replicate 3 = -1.17; inactive.
Silencing of MKRN10P came out at: robust z-score, replicate 1 = 0.121; robust z-score, replicate 2 = -0.226; robust z-score, replicate 3 = -0.114; inactive.
With knock-down of ANXA2R-AS1, the screen gave robust z-score, replicate 1 = 2.18; robust z-score, replicate 2 = 0.193; robust z-score, replicate 3 = 1.97; inactive.
Knock-down of WFDC9 came out at: robust z-score, replicate 1 = 0.127; robust z-score, replicate 2 = 0.246; robust z-score, replicate 3 = 0.442; inactive.
Silencing of TAS2R7 resulted in: robust z-score, replicate 1 = -1.37; robust z-score, replicate 2 = -2.21; robust z-score, replicate 3 = -0.671; inactive.
Against CDHR5, the entry reads robust z-score, replicate 1 = 0.0754; robust z-score, replicate 2 = -0.228; robust z-score, replicate 3 = 0.213; inactive.
With knock-down of PHKA1, the record shows robust z-score, replicate 1 = -0.424; robust z-score, replicate 2 = -0.43; robust z-score, replicate 3 = 0.213; inactive.
Depletion of SNRNP35 came out at: robust z-score, replicate 1 = 0.256; robust z-score, replicate 2 = 0.126; robust z-score, replicate 3 = 0.698; inactive.
CA13 showed robust z-score, replicate 1 = -0.454; robust z-score, replicate 2 = -0.611; robust z-score, replicate 3 = -1.09; inactive.
Depletion of ZNF202 gave: robust z-score, replicate 1 = 0.457; robust z-score, replicate 2 = 0.518; robust z-score, replicate 3 = 1.08; inactive.
Silencing of FBLN1 resulted in: robust z-score, replicate 1 = -1.56; robust z-score, replicate 2 = -1.93; robust z-score, replicate 3 = -1.45; inactive.
With knock-down of RAB33B, the screen gave robust z-score, replicate 1 = -1.38; robust z-score, replicate 2 = 0.231; robust z-score, replicate 3 = -0.688; inactive.
GDAP1L1 showed robust z-score, replicate 1 = -0.251; robust z-score, replicate 2 = -0.00609; robust z-score, replicate 3 = -0.21; inactive.
For PEX39, the values are robust z-score, replicate 1 = 0.525; robust z-score, replicate 2 = 0.378; robust z-score, replicate 3 = 0.692; inactive.
Against SLC12A2 the deposit lists robust z-score, replicate 1 = 2.51; robust z-score, replicate 2 = 4.13; robust z-score, replicate 3 = 4.41; active.
MYO15B gave robust z-score, replicate 1 = 1.81; robust z-score, replicate 2 = 2.3; robust z-score, replicate 3 = 0.436; inactive.

Reformatted: results already given.
gene symbol,"robust z-score, replicate 1","robust z-score, replicate 2","robust z-score, replicate 3",activity call
SNRNP35,0.256,0.126,0.698,inactive
CA13,-0.454,-0.611,-1.09,inactive
ZNF202,0.457,0.518,1.08,inactive
